From the supplement of paper PMC10849652
The other results are listed elsewhere or left out.

By UniProt entry, the sequences of proteins in these tests, tags left out. Where a name states a change or a piece, a line headed by the entry shows the natural chain unless it says otherwise.
UniProt Q15654: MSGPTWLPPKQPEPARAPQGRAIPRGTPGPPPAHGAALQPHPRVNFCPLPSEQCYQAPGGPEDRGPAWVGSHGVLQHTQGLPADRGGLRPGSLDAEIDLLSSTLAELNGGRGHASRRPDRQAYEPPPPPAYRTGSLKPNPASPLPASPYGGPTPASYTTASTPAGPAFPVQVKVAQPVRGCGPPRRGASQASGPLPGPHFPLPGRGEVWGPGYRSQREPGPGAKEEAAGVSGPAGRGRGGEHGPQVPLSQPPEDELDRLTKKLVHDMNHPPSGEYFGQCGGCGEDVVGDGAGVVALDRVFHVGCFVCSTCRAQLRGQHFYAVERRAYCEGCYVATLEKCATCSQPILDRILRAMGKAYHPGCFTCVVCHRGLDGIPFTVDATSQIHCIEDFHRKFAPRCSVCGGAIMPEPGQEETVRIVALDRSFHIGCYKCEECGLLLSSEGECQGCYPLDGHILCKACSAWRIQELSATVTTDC
UniProt P09493, whole entry, looked up: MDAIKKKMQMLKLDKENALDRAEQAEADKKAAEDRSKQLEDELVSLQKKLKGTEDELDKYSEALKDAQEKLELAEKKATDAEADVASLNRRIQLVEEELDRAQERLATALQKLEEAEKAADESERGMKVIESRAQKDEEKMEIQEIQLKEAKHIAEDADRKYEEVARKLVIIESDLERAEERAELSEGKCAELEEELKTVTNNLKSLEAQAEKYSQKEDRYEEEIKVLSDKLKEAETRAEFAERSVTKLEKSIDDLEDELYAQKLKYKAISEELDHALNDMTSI
UniProt Q9H4I3: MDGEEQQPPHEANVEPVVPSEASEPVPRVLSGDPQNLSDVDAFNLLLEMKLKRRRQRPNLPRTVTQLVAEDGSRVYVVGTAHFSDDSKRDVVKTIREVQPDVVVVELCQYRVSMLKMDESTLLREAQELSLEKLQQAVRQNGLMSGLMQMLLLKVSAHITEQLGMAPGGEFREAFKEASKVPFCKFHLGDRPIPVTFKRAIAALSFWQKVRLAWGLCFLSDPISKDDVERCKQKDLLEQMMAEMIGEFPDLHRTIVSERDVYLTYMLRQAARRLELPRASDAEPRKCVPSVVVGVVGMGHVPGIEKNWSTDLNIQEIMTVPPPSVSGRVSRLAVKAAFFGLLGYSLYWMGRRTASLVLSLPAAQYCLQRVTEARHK
UniProt Q14258, whole entry, looked up: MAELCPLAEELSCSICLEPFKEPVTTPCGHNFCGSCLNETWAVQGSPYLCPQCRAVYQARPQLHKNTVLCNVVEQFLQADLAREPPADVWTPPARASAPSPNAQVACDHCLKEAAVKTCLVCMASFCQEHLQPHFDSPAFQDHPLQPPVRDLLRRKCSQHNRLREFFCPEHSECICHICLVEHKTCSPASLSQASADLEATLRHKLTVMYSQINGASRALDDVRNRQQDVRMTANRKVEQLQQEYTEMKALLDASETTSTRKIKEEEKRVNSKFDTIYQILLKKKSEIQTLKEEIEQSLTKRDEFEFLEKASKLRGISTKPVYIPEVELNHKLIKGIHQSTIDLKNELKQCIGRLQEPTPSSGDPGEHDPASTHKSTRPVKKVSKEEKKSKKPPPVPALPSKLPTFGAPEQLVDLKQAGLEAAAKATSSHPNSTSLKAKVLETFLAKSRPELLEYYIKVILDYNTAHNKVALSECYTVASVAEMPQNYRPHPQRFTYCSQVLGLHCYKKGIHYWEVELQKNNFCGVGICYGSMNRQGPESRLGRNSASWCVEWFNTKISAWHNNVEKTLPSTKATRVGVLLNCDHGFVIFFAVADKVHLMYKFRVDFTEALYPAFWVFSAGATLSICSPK
UniProt O14787: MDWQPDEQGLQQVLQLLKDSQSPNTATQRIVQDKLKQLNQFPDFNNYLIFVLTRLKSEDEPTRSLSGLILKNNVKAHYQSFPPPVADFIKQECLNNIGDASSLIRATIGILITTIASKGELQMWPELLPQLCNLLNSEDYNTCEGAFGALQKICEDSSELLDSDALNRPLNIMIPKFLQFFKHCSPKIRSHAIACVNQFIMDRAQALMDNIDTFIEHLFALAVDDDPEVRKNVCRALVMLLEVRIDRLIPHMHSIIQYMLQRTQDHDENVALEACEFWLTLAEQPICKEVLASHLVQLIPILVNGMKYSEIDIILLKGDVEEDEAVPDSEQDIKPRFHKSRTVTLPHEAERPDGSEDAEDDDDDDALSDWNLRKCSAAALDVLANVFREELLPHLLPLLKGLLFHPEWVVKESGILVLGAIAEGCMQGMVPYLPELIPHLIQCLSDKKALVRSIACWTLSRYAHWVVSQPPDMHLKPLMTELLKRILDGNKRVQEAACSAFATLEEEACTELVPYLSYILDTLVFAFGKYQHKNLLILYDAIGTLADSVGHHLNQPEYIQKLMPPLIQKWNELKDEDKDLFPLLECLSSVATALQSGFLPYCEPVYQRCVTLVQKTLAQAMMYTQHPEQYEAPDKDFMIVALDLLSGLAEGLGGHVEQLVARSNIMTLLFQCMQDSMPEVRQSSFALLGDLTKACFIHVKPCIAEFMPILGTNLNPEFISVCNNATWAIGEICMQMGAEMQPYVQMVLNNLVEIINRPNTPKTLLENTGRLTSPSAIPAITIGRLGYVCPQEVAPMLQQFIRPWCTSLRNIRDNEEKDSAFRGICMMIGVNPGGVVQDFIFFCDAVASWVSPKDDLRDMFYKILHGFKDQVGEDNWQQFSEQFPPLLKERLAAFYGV
UniProt Q9NUP7: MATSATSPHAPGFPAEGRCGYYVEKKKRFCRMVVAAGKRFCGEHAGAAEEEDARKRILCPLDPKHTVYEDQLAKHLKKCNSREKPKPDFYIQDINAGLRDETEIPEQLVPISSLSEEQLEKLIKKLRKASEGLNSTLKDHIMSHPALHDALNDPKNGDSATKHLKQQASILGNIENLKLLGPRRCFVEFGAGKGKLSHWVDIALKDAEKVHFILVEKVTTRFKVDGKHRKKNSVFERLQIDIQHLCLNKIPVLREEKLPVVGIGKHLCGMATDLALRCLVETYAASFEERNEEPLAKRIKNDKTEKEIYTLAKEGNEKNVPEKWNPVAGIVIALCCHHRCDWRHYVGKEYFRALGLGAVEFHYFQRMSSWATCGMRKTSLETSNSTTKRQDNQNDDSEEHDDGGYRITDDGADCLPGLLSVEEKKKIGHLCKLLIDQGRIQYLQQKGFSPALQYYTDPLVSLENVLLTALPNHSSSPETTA
UniProt P12270, whole entry, looked up: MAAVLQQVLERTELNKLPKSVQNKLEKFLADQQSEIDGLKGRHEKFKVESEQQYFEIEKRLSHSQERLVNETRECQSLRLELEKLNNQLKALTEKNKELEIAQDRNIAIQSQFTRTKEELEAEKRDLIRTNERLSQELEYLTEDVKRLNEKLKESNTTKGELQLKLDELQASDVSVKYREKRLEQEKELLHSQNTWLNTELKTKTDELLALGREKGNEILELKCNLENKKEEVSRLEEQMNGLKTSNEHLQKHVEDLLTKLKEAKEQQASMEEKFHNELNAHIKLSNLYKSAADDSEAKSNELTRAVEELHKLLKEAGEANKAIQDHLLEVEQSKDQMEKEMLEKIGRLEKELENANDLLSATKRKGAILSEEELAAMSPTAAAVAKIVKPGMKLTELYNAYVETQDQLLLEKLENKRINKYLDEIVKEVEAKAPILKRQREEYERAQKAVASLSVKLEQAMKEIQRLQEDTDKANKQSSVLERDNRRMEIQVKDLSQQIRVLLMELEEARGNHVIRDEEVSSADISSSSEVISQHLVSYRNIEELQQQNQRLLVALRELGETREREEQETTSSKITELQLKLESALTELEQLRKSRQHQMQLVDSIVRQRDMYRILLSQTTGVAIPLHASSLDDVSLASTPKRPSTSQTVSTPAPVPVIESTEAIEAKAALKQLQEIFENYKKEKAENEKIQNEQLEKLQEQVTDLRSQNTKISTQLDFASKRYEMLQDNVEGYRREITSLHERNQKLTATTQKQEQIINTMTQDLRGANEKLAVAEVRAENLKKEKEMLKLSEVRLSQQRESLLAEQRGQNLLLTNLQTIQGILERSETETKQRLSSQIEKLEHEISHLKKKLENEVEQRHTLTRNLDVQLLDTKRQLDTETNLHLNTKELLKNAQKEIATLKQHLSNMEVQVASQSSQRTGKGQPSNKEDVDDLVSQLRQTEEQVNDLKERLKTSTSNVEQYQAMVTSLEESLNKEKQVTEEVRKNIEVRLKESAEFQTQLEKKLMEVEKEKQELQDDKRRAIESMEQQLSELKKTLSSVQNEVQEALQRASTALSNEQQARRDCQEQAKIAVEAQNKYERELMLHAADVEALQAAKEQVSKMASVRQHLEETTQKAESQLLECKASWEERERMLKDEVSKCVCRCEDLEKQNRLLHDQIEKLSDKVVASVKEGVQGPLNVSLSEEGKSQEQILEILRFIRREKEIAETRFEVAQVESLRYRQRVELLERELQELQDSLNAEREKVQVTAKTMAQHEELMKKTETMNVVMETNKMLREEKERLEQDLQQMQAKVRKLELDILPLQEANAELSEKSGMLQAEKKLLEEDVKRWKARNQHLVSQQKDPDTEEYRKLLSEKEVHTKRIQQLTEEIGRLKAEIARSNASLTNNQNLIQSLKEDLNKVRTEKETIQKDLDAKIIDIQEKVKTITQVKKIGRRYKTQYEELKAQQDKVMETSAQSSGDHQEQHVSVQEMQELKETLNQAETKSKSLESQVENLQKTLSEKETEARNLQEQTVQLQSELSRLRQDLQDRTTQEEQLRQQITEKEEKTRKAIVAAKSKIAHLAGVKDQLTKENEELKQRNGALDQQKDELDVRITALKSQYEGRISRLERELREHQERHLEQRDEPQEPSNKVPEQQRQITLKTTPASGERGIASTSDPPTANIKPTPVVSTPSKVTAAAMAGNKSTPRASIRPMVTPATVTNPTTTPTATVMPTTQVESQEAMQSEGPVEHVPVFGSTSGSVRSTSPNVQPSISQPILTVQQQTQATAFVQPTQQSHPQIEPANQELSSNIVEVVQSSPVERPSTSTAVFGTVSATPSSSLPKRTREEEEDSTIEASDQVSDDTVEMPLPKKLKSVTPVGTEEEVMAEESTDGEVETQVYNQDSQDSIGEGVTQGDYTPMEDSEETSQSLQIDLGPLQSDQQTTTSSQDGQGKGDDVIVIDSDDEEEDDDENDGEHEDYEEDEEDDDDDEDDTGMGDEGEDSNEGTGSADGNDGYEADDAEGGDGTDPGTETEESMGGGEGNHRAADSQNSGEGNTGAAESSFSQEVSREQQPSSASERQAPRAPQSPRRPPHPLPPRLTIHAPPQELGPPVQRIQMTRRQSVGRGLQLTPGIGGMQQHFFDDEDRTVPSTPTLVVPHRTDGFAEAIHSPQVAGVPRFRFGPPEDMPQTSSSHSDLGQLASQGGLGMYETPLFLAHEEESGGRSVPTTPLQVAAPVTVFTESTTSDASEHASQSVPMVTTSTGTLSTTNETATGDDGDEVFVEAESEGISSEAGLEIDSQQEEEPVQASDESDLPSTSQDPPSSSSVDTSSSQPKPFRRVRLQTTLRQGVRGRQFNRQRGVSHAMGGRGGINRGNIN
UniProt O14545: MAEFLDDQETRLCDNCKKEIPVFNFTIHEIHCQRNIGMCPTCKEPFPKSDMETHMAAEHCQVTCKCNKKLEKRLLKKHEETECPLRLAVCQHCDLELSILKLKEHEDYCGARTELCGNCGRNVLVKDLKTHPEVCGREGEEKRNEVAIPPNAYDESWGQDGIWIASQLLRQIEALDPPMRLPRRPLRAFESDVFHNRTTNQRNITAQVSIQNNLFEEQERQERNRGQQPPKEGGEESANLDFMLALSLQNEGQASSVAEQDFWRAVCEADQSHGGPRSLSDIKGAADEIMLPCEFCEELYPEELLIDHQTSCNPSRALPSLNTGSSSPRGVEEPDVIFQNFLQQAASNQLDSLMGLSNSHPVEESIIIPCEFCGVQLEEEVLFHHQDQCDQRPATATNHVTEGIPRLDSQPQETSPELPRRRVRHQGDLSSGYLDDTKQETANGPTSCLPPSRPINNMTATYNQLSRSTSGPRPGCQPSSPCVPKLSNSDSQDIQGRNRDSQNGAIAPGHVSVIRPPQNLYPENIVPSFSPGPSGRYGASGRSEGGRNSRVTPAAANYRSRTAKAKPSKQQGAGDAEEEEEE
UniProt Q8NCE0: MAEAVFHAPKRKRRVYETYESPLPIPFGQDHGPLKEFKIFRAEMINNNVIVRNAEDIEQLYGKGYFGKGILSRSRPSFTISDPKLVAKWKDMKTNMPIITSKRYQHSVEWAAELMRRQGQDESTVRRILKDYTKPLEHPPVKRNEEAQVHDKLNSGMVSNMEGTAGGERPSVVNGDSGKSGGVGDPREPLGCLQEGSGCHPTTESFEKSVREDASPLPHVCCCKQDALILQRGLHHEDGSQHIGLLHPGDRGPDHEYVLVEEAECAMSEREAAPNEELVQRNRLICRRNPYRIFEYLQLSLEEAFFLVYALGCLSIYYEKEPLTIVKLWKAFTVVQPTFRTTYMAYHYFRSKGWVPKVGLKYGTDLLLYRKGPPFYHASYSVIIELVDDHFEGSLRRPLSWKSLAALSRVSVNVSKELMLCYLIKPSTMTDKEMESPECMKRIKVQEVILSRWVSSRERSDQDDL

Assays:
Experiment in all cases: log2 fold change, soluble protein after heating vs DMSO (PISA); higher = thermal stabilisation; K562 cells, 10 uM, 30 min; active = over 0.2 and 3.5 SD of the protein, either way, in both replicates (recomputed)
[1] = compound: C1=CC=C(C=C1)[C@H](COC2=CC3=C(C=C2)NC(=O)N3)NC(=O)C4=CC=CN(C4=O)CC5=CC(=C(C=C5)F)F
Summary of the method: (§1)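 K562 cells at 2×10^6 cells/mL were treated with 10 μM compound for 30 min. Aliquots were heated for 3 min across 48°C-58°C, pooled, and extracted in PBS with 0.5% NP-40 at 4°C; soluble protein was the supernatant after 21,000xg for 90 min. Soluble protein was quantified by TMTpro 16plex LC-MS/MS with channel sums equalised, and reported as log2 fold change in thermal stability against DMSO controls, with values from duplicates.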

[2] = compound: CC1=C(SC2=C1C(=N[C@H](C3=NN=C(N32)C)CC(=O)N)C4=CC=C(C=C4)Cl)C
Summary of the method: as §1

[3] = compound: CC1=C2C(=CC=C1)N=C(N(C2=O)C3=CC=CC=C3C)CN4C=NC5=C(N=CN=C54)N
Summary of the method: as §1

[4] = compound: Cc1sc2c(c1C)C(c1ccc(Cl)cc1)=N[C@@H](CC(=O)OC(C)(C)C)c1nnc(C)n1-2
Summary of the method: as §1

[5] = compound: c1ccc([C@@H]2C[C@H]2NC2CCNCC2)cc1
Summary of the method: as §1

Measured: log2 fold change

TPST2 (UniProt O60704)
inactive: [1] 0.187 | [2] 0.038 | [3] 0.024 | [4] -0.036 | [5] 0.013

TPX2 (UniProt Q9ULW0)
inactive: [1] 0.016 | [2] -0.012 | [3] -0.066 | [4] 0.058 | [5] 0.041

TRMT61B (UniProt Q9BVS5)
inactive: [1] 0.013 | [2] -0.018 | [3] -0.074 | [4] 0.033 | [5] -0.016

TNKS1BP1 (UniProt Q9C0C2)
inactive: [1] 0.02 | [2] -0.009 | [3] 0.021 | [4] 0.002 | [5] 0.024

TRIP6 (UniProt Q15654)
inactive: [1] 0.004 | [2] 0.027 | [3] 0.017 | [4] -0.043 | [5] 0.006

TPM1 isoform 4 (UniProt P09493)
inactive: [1] -0.011 | [2] 0.011 | [3] 0.015 | [4] -0.01 | [5] 0.008

TRMU (UniProt O75648)
inactive: [1] -0.021 | [2] 0.102 | [3] 0.09 | [4] 0.027 | [5] -0.011

TRA2B (UniProt P62995)
inactive: [1] 0.227 | [2] -0.349 | [3] -0.11 | [4] 0.318 | [5] 0.048

TRABD (UniProt Q9H4I3)
inactive: [1] 0.005 | [2] -0.034 | [3] -0.054 | [4] 0.027 | [5] -0.054

TRMT61A (UniProt Q96FX7)
inactive: [1] 0.157 | [2] -0.033 | [3] -0.051 | [4] 0.141 | [5] -0.049

TRIP10 (UniProt Q15642)
inactive: [1] 0.016 | [2] 0.005 | [3] 0.081 | [4] 0.014 | [5] 0.037

TRAPPC10 (UniProt P48553)
inactive: [1] 0.029 | [2] 0.039 | [3] 0.024 | [4] 0.006 | [5] -0.035

TPCN1 isoform 3 (UniProt Q9ULQ1)
inactive: [1] 0.137 | [2] 0.018 | [3] 0.095 | [4] 0.052 | [5] 0.073

TRIM25 (UniProt Q14258)
inactive: [1] 0.066 | [2] -0.142 | [3] -0.029 | [4] 0.088 | [5] -0.035

TNPO2 (UniProt O14787)
inactive: [1] -0.067 | [2] 0.03 | [3] 0.158 | [4] -0.051 | [5] -0.005

Looked up one by one from the entries so far, two records:
TRIM25 (UniProt Q14258)
inactive: [1] 0.066 | [2] -0.142 | [3] -0.029 | [4] 0.088 | [5] -0.035

TRAPPC10 (UniProt P48553)
inactive: [1] 0.029 | [2] 0.039 | [3] 0.024 | [4] 0.006 | [5] -0.035

More results.

TRMT13 (UniProt Q9NUP7)
inactive: [1] 0.003 | [2] 0.019 | [3] 0.084 | [4] 0.028 | [5] -0.023

TRIM33 (UniProt Q9UPN9)
inactive: [1] -0.103 | [2] 0.135 | [3] 0.173 | [4] 0.142 | [5] 0.111

TOE1 (UniProt Q96GM8)
inactive: [1] 0.049 | [2] -0.036 | [3] -0.095 | [4] 0.065 | [5] 0.014

TPR (UniProt P12270)
inactive: [1] 0.053 | [2] 0.014 | [3] 0.001 | [4] 0.083 | [5] 0.043

TRAFD1 (UniProt O14545)
inactive: [1] -0.004 | [2] 0.032 | [3] -0.032 | [4] 0.026 | [5] 0.001

TSEN2 (UniProt Q8NCE0)
inactive: [1] -0.05 | [2] 0 | [3] 0.044 | [4] -0.027 | [5] 0.03

TRRAP (UniProt Q9Y4A5)
inactive: [1] 0.002 | [2] 0.029 | [3] 0.006 | [4] -0.036 | [5] 0.02

TNIK isoform 6 (UniProt Q9UKE5)
inactive: [1] -0.025 | [2] 0.025 | [3] 0.018 | [4] 0.013 | [5] -0.053

TOM1 isoform 2 (UniProt O60784)
inactive: [1] 0.044 | [2] 0.001 | [3] -0.074 | [4] 0.046 | [5] 0.008
